# Measurements from article doi:10.1101/2021.08.09.455745.
# These are yes or no findings as the source states them, for the method shown. Binding seen in cells or lysates may run through a third protein. A yes stands for co-enrichment or nearness to the bait. Other partners may have been found.
# B1: CLTA (protein, UniProt P09496 1-248)
# chain: MAELDPFGAPAGAPGGPALGNGVAGAGEEDPAAAFLAQQESEIAGIENDEAFAILDGGAPGPQPHGEPPGGPDAVDGVMNGEYYQESNGPTDSYAAISQVDRLQSEPESIRKWREEQMERLEALDANSRKQEAEWKEKAIKELEEWYARQDEQLQKTKANNRVADEAFYKQPFADVIGYVTNINHPCYSLEQAAEEAFVNDIDESSPGTEWERVARLCDFNPKSSKQAKDVSRMRSVLISLKQAPLVH
# B2: HIP1 (protein, UniProt O00291 1-1037)
# chain: MDRMASSMKQVPNPLPKVLSRRGVGAGLEAAERESFERTQTVSINKAINTQEVAVKEKHARTCILGTHHEKGAQTFWSVVNRLPLSSNAVLCWKFCHVFHKLLRDGHPNVLKDSLRYRNELSDMSRMWGHLSEGYGQLCSIYLKLLRTKMEYHTKNPRFPGNLQMSDRQLDEAGESDVNNFFQLTVEMFDYLECELNLFQTVFNSLDMSRSVSVTAAGQCRLAPLIQVILDCSHLYDYTVKLLFKLHSCLPADTLQGHRDRFMEQFTKLKDLFYRSSNLQYFKRLIQIPQLPENPPNFLRASALSEHISPVVVIPAEASSPDSEPVLEKDDLMDMDASQQNLFDNKFDDIFGSSFSSDPFNFNSQNGVNKDEKDHLIERLYREISGLKAQLENMKTESQRVVLQLKGHVSELEADLAEQQHLRQQAADDCEFLRAELDELRRQREDTEKAQRSLSEIERKAQANEQRYSKLKEKYSELVQNHADLLRKNAEVTKQVSMARQAQVDLEREKKELEDSLERISDQGQRKTQEQLEVLESLKQELATSQRELQVLQGSLETSAQSEANWAAEFAELEKERDSLVSGAAHREEELSALRKELQDTQLKLASTEESMCQLAKDQRKMLLVGSRKAAEQVIQDALNQLEEPPLISCAGSADHLLSTVTSISSCIEQLEKSWSQYLACPEDISGLLHSITLLAHLTSDAIAHGATTCLRAPPEPADSLTEACKQYGRETLAYLASLEEEGSLENADSTAMRNCLSKIKAIGEELLPRGLDIKQEELGDLVDKEMAATSAAIETATARIEEMLSKSRAGDTGVKLEVNERILGCCTSLMQAIQVLIVASKDLQREIVESGRGTASPKEFYAKNSRWTEGLISASKAVGWGATVMVDAADLVVQGRGKFEELMVCSHEIAASTAQLVAASKVKADKDSPNLAQLQQASRGVNQATAGVVASTISGKSQIEETDNMDFSSMTLTQIKRQEMDSQVRVLELENELQKERQKLGELRKKHYELAGVAEGWEEGTEASPPTLQEVVTEKE
# B3: STON2 (protein, UniProt Q8WXE9 1-905)
# chain: MTTLDHVIATHQSEWVSFNEEPPFPAHSQGGTEEHLPGLSSSPDQSESSSGENHVVDGGSQDHSHSEQDDSSEKMGLISEAASPPGSPEQPPPDLASAISNWVQFEDDTPWASTSPPHQETAETALPLTMPCWTCPSFDSLGRCPLTSESSWTTHSEDTSSPSFGCSYTDLQLINAEEQTSGQASGADSTDNSSSLQEDEEVEMEAISWQASSPAMNGHPAPPVTSARFPSWVTFDDNEVSCPLPPVTSPLKPNTPPSASVIPDVPYNSMGSFKKRDRPKSTLMNFSKVQKLDISSLNRTPSVTEASPWRATNPFLNETLQDVQPSPINPFSAFFEEQERRSQNSSISSTTGKSQRDSLIVIYQDAISFDDSSKTQSHSDAVEKLKQLQIDDPDHFGSATLPDDDPVAWIELDAHPPGSARSQPRDGWPMMLRIPEKKNIMSSRHWGPIFVKLTDTGYLQLYYEQGLEKPFREFKLEICHEISEPRLQNYDENGRIHSLRIDRVTYKEKKKYQPKPAVAHTAEREQVIKLGTTNYDDFLSFIHAVQDRLMDLPVLSMDLSTVGLNYLEEEITVDVRDEFSGIVSKGDNQILQHHVLTRIHILSFLSGLAECRLGLNDILVKGNEIVLRQDIMPTTTTKWIKLHECRFHGCVDEDVFHNSRVILFNPLDACRFELMRFRTVFAEKTLPFTLRTATSVNGAEVEVQSWLRMSTGFSANRDPLTQVPCENVMIRYPVPSEWVKNFRRESVLGEKSLKAKVNRGASFGSTSVSGSEPVMRVTLGTAKYEHAFNSIVWRINRLPDKNSASGHPHCFFCHLELGSDREVPSRFANHVNVEFSMPTTSASKASVRSISVEDKTDVRKWVNYSAHYSYQVALGSIWLMLPTPFVHPTTLPLLFLLAMLTMFAW
# B4: DAB2 (protein, UniProt P98082 1-770)
# chain: MSNEVETSATNGQPDQQAAPKAPSKKEKKKGPEKTDEYLLARFKGDGVKYKAKLIGIDDVPDARGDKMSQDSMMKLKGMAAAGRSQGQHKQRIWVNISLSGIKIIDEKTGVIEHEHPVNKISFIARDVTDNRAFGYVCGGEGQHQFFAIKTGQQAEPLVVDLKDLFQVIYNVKKKEEEKKKIEEASKAVENGSEALMILDDQTNKLKSGVDQMDLFGDMSTPPDLNSPTESKDILLVDLNSEIDTNQNSLRENPFLTNGITSCSLPRPTPQASFLPENAFSANLNFFPTPNPDPFRDDPFTQPDQSTPSSFDSLKSPDQKKENSSSSSTPLSNGPLNGDVDYFGQQFDQISNRTGKQEAQAGPWPFSSSQTQPAVRTQNGVSEREQNGFSVKSSPNPFVGSPPKGLSIQNGVKQDLESSVQSSPHDSIAIIPPPQSTKPGRGRRTAKSSANDLLASDIFAPPVSEPSGQASPTGQPTALQPNPLDLFKTSAPAPVGPLVGLGGVTVTLPQAGPWNTASLVFNQSPSMAPGAMMGGQPSGFSQPVIFGTSPAVSGWNQPSPFAASTPPPVPVVWGPSASVAPNAWSTTSPLGNPFQSNIFPAPAVSTQPPSMHSSLLVTPPQPPPRAGPPKDISSDAFTALDPLGDKEIKDVKEMFKDFQLRQPPAVPARKGEQTSSGTLSAFASYFNSKVGIPQENADHDDFDANQLLNKINEPPKPAPRQVSLPVTKSTDNAFENPFFKDSFGSSQASVASSQPVSSEMYRDPFGNPFA
# B5: LRCH3 (protein, UniProt Q96II8 1-777)
# chain: MAAAGLVAVAAAAEYSGTVASGGNLPGVHCGPSSGAGPGFGPGSWSRSLDRALEEAAVTGVLSLSGRKLREFPRGAANHDLTDTTRADLSRNRLSEIPIEACHFVSLENLNLYQNCIRYIPEAILNLQALTFLNISRNQLSTLPVHLCNLPLKVLIASNNKLVSLPEEIGHLRHLMELDVSCNEIQTIPSQIGNLEALRDLNVRRNHLVHLPEELAELPLIRLDFSCNKITTIPVCYRNLRHLQTITLDNNPLQSPPAQICIKGKVHIFKYLNIQACKIAPDLPDYDRRPLGFGSCHEELYSSRPYGALDSGFNSVDSGDKRWSGNEPTDEFSDLPLRVAEITKEQRLRRESQYQENRGSLVVTNGGVEHDLDQIDYIDSCTAEEEEAEVRQPKGPDPDSLSSQFMAYIEQRRISHEGSPVKPVAIREFQKTEDMRRYLHQNRVPAEPSSLLSLSASHNQLSHTDLELHQRREQLVERTRREAQLAALQYEEEKIRTKQIQRDAVLDFVKQKASQSPQKQHPLLDGVDGECPFPSRRSQHTDDSALCMSLSGLNQVGCAATLPHSSAFTPLKSDDRPNALLSSPATETVHHSPAYSFPAAIQRNQPQRPESFLFRAGVRAETNKGHASPLPPSAAPTTDSTDSITGQNSRQREEELELIDQLRKHIEYRLKVSLPCDLGAALTDGVVLCHLANHVRPRSVPSIHVPSPAVPKLTMAKCRRNVENFLEACRKIGVPQEQLCLPLHILEEKGLSQVAVTVQALLELAPPKQQQHQLSAV
# B6: ankycorbin (protein, UniProt Q9P0K7 1-980)
# chain: MKSLKAKFRKSDTNEWNKNDDRLLQAVENGDAEKVASLLGKKGASATKHDSEGKTAFHLAAAKGHVECLRVMITHGVDVTAQDTTGHSALHLAAKNSHHECIRKLLQSKCPAESVDSSGKTALHYAAAQGCLQAVQILCEHKSPINLKDLDGNIPLLLAVQNGHSEICHFLLDHGADVNSRNKSGRTALMLACEIGSSNAVEALIKKGADLNLVDSLGYNALHYSKLSENAGIQSLLLSKISQDADLKTPTKPKQHDQVSKISSERSGTPKKRKAPPPPISPTQLSDVSSPRSITSTPLSGKESVFFAEPPFKAEISSIRENKDRLSDSTTGADSLLDISSEADQQDLLSLLQAKVASLTLHNKELQDKLQAKSPKEAEADLSFDSYHSTQTDLGPSLGKPGETSPPDSKSSPSVLIHSLGKSTTDNDVRIQQLQEILQDLQKRLESSEAERKQLQVELQSRRAELVCLNNTEISENSSDLSQKLKETQSKYEEAMKEVLSVQKQMKLGLVSPESMDNYSHFHELRVTEEEINVLKQDLQNALEESERNKEKVRELEEKLVEREKGTVIKPPVEEYEEMKSSYCSVIENMNKEKAFLFEKYQEAQEEIMKLKDTLKSQMTQEASDEAEDMKEAMNRMIDELNKQVSELSQLYKEAQAELEDYRKRKSLEDVTAEYIHKAEHEKLMQLTNVSRAKAEDALSEMKSQYSKVLNELTQLKQLVDAQKENSVSITEHLQVITTLRTAAKEMEEKISNLKEHLASKEVEVAKLEKQLLEEKAAMTDAMVPRSSYEKLQSSLESEVSVLASKLKESVKEKEKVHSEVVQIRSEVSQVKREKENIQTLLKSKEQEVNELLQKFQQAQEELAEMKRYAESSSKLEEDKDKKINEMSKEVTKLKEALNSLSQLSYSTSSSKRQSQQLEALQQQVKQLQNQLAECKKQHQEVISVYRMHLLYAVQGQMDEDVQKVLKQILTMCKNQSQKK
# Target: ARAP1 (human (endogenous in fetal RPE cells))
# Assay: affinity purification with mass spectrometry
row,Binder,binding
1,B1,binds
2,B2,binds
3,B3,binds
4,B4,binds
5,B5,binds
6,B6,binds
